According to PubChem BioAssay AID1671190 (National Center for Advancing Translational Sciences (NCATS), 2021):
Where “and” joins values, the source holds several entries; their conditions need not be identical. Equal entries are not always repeated. In all, about 580,000 compounds went through this assay and about 6,100 (1.1%) were called active. The inconclusive results got no clear call from the source; some entries with a clear call stand among them for comparison. Calls follow the shape of the dose curve; as a rule, active = well fitted inhibition curve with a large enough effect; inconclusive = small, poorly fitted or top-dose-only effect, or another doubt; inactive = no such curve, though single readings can be large or run the other way. Where the call is inconclusive, the potency comes from a doubtful curve fit.

Protein sequences, listed by entry. Tags and fused reporters are not part of them.
UniProt P18054, whole entry, looked up: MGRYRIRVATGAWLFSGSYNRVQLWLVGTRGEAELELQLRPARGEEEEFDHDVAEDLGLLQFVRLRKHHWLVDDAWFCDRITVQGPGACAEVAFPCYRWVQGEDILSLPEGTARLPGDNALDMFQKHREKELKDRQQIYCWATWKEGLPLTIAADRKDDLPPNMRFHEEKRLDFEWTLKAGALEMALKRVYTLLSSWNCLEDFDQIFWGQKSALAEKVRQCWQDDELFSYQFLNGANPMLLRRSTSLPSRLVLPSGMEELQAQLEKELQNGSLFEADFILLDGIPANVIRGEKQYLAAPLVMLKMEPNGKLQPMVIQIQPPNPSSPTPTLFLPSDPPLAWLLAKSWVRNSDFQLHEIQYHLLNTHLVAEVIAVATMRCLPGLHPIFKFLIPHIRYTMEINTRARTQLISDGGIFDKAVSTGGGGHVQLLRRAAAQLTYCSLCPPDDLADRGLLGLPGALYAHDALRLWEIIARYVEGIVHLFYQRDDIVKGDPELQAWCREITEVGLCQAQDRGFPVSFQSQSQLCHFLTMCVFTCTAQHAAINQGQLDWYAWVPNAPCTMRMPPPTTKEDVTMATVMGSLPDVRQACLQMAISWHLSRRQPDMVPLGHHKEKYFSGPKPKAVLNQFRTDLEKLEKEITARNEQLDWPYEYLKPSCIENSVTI

Target: Polyunsaturated fatty acid lipoxygenase ALOX12 (Homo sapiens) (UniProt P18054)
Experiment: Primary qHTS assay for inhibitors of human arachidonate 12S-lipoxygenase (ALOX12): Round 2
Conditions: purified 12hLO, xylenol orange hydroperoxide absorbance; activity change, negative = inhibition: at 108 µM (top of the series) unless noted
Method in brief: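 Hydroperoxide product was detected by ferrous iron/xylenol orange as the 573 to 405 nm absorbance ratio. Arachidonic acid at 40 uM (final) was turned over for 30 min at room temperature by 150 nM human 12hLO, pH 7.0 Hepes buffer, after 15 min compound preincubation.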
% is scaled to controls: 0 for no effect and ±100 for the full control effect; potency is read from the fitted curve at half-maximal effect.

| Compound | activity change, negative = inhibition | Potency |
| --- | --- | --- |
| CCc1cn[nH]c1C1CCCN(C(=O)c2oc3cc(C)ccc3c2C)C1 (stereo not drawn) | inactive: 13.1% |  |
| O=C(Cc1n[nH]c(=O)c2ccccc12)Nc1ccccc1O | inactive: 18% |  |
| CC(COc1ccccc1)N(CCCl)Cc1ccccc1 (stereo not drawn) |  | inconclusive: 70.8 µM [inhibitor, partial curve, poor fit] and inconclusive: 10.2 µM [inhibitor, single point] and inconclusive: 7.69 µM [inhibitor, single point] |
| COc1cccc(CNC(=O)CN2C(=O)C(C)=C(c3ccc(C)c(C)c3)S2(=O)=O)c1 |  | inconclusive: 0.199 µM [inhibitor, full curve, poor fit] |
| Fc1ccc(CNCc2ccc(-c3ccc(F)cc3)o2)cc1 |  | inconclusive: 44.7 µM [inhibitor, partial curve, poor fit] |
| Nc1ccc(N2CCN(C(=O)c3cccs3)CC2)cc1 | inactive: 0.946% |  |
| COc1cccc(CNC(=O)c2ccc(OC)c(S(=O)(=O)NC3CCCC3)c2)c1 |  | inconclusive: 126 µM [inhibitor, single point] |
| O=C(NCCc1ccc(Cl)cc1)C1CCCN(c2ncnc3c2nc2n3CCCCC2)C1 (stereo not drawn) | inactive: -21% |  |
| C=C(C)CN(CC)C(=O)CCc1ccco1 | inactive: -5.37% |  |
| O=C(C1CCC(Cn2c(=S)[nH]c3ccccc3c2=O)CC1)N1CCN(c2ccccc2)CC1 (stereo not drawn) | inactive: 4.77% |  |
| COc1ccccc1CNC(=O)C1CCCN(c2nn3cc(-c4ccc(C)cc4)nc3s2)C1 (stereo not drawn) | inactive: 12.7% |  |
| O=C(Cn1cnc2ccccc2c1=O)Nc1nc2ccccc2s1 | inactive: 3.99% |  |
| CCCNC(=O)C1(C)CCN(Cc2noc(-c3ccccc3OC)n2)C1 (stereo not drawn) |  | inconclusive: 31.6 µM [inhibitor, single point] |
| COc1ncc2nc(CCc3ccccc3)c(=O)n(CCC#N)c2n1 |  | inconclusive: 14.1 µM [inhibitor, full curve, poor fit] |
| O=C(c1cccs1)N1CCC(N2CCN(c3ccccc3)CC2)CC1 |  | inconclusive: 0.355 µM [inhibitor, full curve, poor fit] |
| COC(=O)C1CN(Cc2cn(CCC3OCCO3)nn2)CCS(=O)(=O)N1Cc1ccc(OC)cc1 (stereo not drawn) |  | inconclusive: 50.1 µM [inhibitor, single point] |
| CC1(C)CC(=O)C2=C(C1)Nc1nc(N)[nH]c(=O)c1C2c1ccc2c(c1)OCO2 (stereo not drawn) |  | inconclusive: 112 µM [inhibitor, single point] |
| CN(C)c1ccc(NC(=O)CCn2ccn3nc4c(c3c2=O)CCCC4)cc1 |  | inconclusive: 70.8 µM [inhibitor, single point] |
| Cc1ccc(N2CCN(Cc3ccccc3)CC2=O)c(C)c1 |  | inconclusive: 0.398 µM [inhibitor, full curve, poor fit] |
| CC(C)c1cccc(NC(=O)C2CCN(C(=O)c3ncn4c3COC(c3ccc(F)cc3)C4)CC2)c1 (stereo not drawn) | inactive: 41.5% |  |
| CC(=O)NC(c1cccs1)c1cc([N+](=O)[O-])c2cccnc2c1O (stereo not drawn) |  | inconclusive: 31.6 µM [inhibitor, partial curve, poor fit] |
| CCOC(=O)N1CCN(C(=O)N2CCOCC2)CC1 |  | inconclusive: 2 µM [inhibitor, full curve, poor fit] |

Three entries drawn at random from those above, as already listed:

| Compound | activity change, negative = inhibition | Potency |
| --- | --- | --- |
| O=C(NCCc1ccc(Cl)cc1)C1CCCN(c2ncnc3c2nc2n3CCCCC2)C1 (stereo not drawn) | inactive: -21% |  |
| COc1ccccc1CNC(=O)C1CCCN(c2nn3cc(-c4ccc(C)cc4)nc3s2)C1 (stereo not drawn) | inactive: 12.7% |  |
| Cc1ccc(N2CCN(Cc3ccccc3)CC2=O)c(C)c1 |  | inconclusive: 0.398 µM [inhibitor, full curve, poor fit] |

Next results follow:

| Compound | activity change, negative = inhibition | Potency |
| --- | --- | --- |
| Cc1ccccc1OCCC(=O)N1CCN(S(=O)(=O)c2ccc(Cl)cc2)CC1 |  | inconclusive: 89.1 µM [inhibitor, partial curve, poor fit] |
| Clc1ccc(-c2nc(-c3cc4cc(Cl)ccc4o3)cs2)cc1 | inactive: 11.8% |  |
| CN1C(=S)SC(N(O)C(=O)Nc2ccccc2)C1(C)C (stereo not drawn) | inactive: -19.4% |  |
| c1ccc(-c2cc(-c3ccccc3)nc(-c3ccccc3)c2)cc1 |  | inconclusive: 50.1 µM [inhibitor, single point] |
| CCCCC(CC)CNC(=O)Cc1ccc(-n2c(=O)[nH]c3ccccc3c2=O)cc1 (stereo not drawn) |  | inconclusive: 126 µM [inhibitor, single point] |
| Cc1ccc2nc(-c3ccc(NC(=O)CSCC(=O)O)cc3)sc2c1 | inactive: -12.9% |  |
| Cc1noc(C)c1NC(=O)N(C)C[C@H]1OCCCC[C@@H](C)Oc2ccc(NC(=O)Nc3ccc(F)cc3)cc2C(=O)N([C@@H](C)CO)C[C@H]1C | inactive: -56.2% |  |
| Cc1cc(C)cc(NC(=O)Cn2c(-n3nc(C)cc3C)nc(-c3ccccc3)cc2=O)c1 | inactive: -0.685% |  |
| COc1cc(OC)c(OC)cc1CNCc1ccco1 |  | inconclusive: 0.562 µM [inhibitor, full curve, poor fit] |
| C/C(=N\Nc1ccccn1)c1cccs1 |  | inconclusive: 89.1 µM [inhibitor, partial curve, poor fit] |
| CC(=O)N1c2ccc(S(=O)(=O)Nc3ccc(C)c(Cl)c3)cc2CC1C (stereo not drawn) |  | inconclusive: 89.1 µM [inhibitor, partial curve, poor fit] |
| O=C(N/N=C/c1ccc(OC(F)F)cc1OC(F)F)c1ccc(Br)cc1 | inactive: -0.0905% |  |
| CCCn1c(CCC(=O)O)ccc1-c1cccs1 |  | inconclusive: 50.1 µM [inhibitor, partial curve, poor fit] |
| CCc1cccc(NC(=O)Cn2c3[n+](c4ccc(C(F)(F)F)cc42)CCCCC3)c1 |  | inconclusive: 44.7 µM [inhibitor, partial curve, poor fit] |
| O=C(Nc1ccc(CN2CCCC2)cc1)Nc1ccc2c(c1)OCCO2 | inconclusive: -35.8% [inhibitor] |  |
| CSC(=S)N/N=C(\C)c1ccc(Br)cc1 |  | active: 44.7 µM |
| COc1cccc(NC(=O)CCc2ncc(-c3ccc(Cl)cc3)o2)c1 |  | inconclusive: 0.631 µM [inhibitor, partial curve, poor fit] |
| Cc1c(Cc2ccccc2)c(=O)oc2cc(OCC(=O)NCCCO)ccc12 |  | inconclusive: 89.1 µM [inhibitor, single point] |
| CCc1cc2c(=O)c(-c3nncn3-c3ccccc3)coc2cc1OCC(=O)NCC(=O)O |  | inconclusive: 4.47 µM [inhibitor, single point] |
| Cc1c(CCNC(=O)c2ccc(C(C)(C)C)cc2)sc2nc(-c3ccc(F)cc3)nn12 |  | inconclusive: 35.5 µM [inhibitor, partial curve, poor fit] |
| OCCCSc1nnc(-c2c[nH]c3ccccc23)n1C1CC1 |  | inconclusive: 22.4 µM [inhibitor, full curve, poor fit] |
